Measurements as given in the supplement of paper PMC11732987, “Enantioselective OTUD7B fragment discovery through chemoproteomics screening and high-throughput optimisation” (Communications Chemistry, 2025).
This is one part of the list. The data scatter; read single values as rough.

Chains of the proteins cited; added tags and fusions are not shown. Lines headed by an entry give the natural chain unless they say otherwise; changes in a name come on top. Residues count along the entry.
UniProt P10244, 5-26: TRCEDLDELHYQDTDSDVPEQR
UniProt O75592: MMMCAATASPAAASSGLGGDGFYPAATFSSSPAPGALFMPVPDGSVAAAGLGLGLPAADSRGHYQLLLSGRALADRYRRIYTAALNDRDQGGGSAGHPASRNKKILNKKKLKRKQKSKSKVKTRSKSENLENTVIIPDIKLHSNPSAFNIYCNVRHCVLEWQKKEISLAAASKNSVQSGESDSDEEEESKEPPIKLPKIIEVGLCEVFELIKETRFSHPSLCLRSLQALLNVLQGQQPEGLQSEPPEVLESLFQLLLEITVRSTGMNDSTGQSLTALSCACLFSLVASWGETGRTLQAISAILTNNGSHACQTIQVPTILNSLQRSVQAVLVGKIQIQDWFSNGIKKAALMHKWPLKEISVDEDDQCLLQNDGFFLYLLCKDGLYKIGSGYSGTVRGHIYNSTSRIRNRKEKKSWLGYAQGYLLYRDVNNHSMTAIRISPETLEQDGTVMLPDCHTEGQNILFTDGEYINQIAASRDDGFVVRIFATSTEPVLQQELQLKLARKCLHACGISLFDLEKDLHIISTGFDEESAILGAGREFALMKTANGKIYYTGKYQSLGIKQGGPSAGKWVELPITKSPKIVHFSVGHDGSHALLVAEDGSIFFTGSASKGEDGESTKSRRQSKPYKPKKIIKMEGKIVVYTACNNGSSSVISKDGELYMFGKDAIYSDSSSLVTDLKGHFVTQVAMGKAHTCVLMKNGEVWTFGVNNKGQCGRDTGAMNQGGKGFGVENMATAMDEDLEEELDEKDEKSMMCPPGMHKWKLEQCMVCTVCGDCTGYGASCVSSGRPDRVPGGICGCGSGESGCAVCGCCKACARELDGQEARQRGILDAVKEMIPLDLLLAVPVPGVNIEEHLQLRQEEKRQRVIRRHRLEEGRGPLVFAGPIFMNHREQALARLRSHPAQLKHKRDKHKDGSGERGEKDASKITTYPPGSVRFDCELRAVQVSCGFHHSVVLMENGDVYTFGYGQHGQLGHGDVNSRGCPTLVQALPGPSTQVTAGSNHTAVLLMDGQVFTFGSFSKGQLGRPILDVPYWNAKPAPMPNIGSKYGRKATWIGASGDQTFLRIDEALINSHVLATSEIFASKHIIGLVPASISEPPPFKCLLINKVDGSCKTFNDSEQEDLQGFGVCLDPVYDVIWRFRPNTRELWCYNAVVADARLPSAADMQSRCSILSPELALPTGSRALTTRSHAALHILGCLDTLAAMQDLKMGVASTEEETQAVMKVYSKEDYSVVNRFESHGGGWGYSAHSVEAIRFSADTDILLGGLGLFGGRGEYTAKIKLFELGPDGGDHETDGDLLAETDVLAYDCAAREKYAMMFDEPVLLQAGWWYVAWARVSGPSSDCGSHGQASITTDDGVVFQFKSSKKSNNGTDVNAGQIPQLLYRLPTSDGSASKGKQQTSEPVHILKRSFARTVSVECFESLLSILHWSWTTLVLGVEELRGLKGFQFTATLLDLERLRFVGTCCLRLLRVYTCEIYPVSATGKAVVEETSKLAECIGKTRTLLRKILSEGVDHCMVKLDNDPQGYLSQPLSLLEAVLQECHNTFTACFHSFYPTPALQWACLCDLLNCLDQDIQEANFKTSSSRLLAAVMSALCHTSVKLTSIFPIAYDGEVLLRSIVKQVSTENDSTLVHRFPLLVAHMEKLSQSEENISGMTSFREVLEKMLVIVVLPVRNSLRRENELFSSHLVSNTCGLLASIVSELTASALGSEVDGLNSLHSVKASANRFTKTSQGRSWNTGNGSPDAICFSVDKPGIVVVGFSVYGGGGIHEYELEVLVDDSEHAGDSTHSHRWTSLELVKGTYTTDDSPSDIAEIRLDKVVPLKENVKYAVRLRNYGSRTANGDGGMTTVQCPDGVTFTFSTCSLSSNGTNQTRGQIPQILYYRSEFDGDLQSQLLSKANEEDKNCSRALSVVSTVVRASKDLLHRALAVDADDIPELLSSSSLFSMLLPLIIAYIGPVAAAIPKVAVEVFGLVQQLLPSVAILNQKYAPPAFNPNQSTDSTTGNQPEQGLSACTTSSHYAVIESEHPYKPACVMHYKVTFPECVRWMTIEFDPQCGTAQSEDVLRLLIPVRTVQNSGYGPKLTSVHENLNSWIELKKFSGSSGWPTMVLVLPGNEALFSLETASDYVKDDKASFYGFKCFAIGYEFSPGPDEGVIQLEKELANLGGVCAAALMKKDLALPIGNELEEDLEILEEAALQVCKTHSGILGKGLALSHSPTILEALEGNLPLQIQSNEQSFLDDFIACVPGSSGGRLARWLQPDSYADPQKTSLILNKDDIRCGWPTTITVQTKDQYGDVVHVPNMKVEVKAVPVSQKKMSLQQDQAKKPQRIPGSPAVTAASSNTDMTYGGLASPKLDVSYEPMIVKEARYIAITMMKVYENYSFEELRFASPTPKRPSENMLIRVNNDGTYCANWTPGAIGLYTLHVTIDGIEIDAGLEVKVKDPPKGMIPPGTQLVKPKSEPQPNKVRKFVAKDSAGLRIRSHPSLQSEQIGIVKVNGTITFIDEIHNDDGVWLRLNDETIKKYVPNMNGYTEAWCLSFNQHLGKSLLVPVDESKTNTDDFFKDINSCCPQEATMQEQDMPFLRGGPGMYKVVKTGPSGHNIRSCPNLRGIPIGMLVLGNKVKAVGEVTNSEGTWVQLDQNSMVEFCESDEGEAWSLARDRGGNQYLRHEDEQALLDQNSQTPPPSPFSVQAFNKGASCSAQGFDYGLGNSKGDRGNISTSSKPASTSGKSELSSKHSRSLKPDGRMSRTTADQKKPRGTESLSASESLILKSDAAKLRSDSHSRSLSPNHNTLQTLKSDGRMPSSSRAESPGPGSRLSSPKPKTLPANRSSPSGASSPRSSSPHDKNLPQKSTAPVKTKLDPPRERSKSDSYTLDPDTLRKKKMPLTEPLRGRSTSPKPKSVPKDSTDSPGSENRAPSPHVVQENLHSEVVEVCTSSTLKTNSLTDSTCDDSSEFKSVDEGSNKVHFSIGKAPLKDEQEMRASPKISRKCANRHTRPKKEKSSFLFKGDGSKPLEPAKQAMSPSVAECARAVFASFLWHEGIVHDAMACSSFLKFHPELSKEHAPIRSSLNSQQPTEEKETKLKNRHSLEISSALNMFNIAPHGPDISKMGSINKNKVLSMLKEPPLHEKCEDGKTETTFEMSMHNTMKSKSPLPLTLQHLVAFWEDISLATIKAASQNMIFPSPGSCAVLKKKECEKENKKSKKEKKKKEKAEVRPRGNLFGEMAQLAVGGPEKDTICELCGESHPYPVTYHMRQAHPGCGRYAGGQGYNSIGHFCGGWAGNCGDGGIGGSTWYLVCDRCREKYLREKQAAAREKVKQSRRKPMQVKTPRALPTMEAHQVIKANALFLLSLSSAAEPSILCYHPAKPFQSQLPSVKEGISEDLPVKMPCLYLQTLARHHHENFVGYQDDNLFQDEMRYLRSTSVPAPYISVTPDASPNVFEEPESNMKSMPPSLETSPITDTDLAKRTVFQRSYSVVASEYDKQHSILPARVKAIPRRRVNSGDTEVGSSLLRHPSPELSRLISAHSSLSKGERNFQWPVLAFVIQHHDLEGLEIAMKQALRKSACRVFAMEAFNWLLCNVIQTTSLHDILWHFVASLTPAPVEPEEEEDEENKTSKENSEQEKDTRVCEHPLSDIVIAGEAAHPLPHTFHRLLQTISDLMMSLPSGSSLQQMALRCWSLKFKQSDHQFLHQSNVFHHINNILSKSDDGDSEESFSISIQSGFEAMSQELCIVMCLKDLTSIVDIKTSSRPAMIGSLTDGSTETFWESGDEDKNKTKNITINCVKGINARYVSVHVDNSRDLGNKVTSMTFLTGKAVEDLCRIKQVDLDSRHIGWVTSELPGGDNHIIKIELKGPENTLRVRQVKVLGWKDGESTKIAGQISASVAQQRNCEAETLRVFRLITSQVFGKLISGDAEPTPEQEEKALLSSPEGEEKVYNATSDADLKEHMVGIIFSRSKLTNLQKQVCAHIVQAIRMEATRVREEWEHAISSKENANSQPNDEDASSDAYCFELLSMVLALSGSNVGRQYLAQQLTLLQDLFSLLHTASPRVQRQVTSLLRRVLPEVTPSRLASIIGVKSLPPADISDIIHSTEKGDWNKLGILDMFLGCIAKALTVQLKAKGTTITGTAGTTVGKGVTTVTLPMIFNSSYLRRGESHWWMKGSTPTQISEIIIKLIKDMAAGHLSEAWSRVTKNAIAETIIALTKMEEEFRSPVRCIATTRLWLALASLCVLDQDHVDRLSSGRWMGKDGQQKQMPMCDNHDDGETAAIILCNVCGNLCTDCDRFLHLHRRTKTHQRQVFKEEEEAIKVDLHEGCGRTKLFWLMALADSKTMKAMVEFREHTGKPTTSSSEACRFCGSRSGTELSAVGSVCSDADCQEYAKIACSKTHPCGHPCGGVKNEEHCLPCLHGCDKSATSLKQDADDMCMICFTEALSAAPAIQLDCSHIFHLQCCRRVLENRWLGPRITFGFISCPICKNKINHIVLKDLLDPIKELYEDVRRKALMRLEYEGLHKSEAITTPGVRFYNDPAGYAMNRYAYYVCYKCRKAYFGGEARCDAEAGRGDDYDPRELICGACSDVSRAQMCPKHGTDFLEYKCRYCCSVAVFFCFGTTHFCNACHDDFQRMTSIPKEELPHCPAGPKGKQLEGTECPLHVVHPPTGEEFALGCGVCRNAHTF
UniProt Q96DP5: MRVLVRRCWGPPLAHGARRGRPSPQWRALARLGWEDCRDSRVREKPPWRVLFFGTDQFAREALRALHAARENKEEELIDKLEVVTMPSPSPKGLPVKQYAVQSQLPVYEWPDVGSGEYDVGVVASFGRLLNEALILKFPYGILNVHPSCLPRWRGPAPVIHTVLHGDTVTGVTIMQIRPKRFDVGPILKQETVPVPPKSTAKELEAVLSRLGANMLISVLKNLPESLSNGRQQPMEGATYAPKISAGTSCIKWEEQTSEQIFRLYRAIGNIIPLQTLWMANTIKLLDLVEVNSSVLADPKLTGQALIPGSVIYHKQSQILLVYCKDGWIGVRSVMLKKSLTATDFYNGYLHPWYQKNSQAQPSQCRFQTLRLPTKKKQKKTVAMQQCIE
UniProt Q9ULH7, 620-640: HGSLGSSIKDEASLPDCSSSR
UniProt Q969V6, 310-330: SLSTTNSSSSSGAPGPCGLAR
UniProt Q99747: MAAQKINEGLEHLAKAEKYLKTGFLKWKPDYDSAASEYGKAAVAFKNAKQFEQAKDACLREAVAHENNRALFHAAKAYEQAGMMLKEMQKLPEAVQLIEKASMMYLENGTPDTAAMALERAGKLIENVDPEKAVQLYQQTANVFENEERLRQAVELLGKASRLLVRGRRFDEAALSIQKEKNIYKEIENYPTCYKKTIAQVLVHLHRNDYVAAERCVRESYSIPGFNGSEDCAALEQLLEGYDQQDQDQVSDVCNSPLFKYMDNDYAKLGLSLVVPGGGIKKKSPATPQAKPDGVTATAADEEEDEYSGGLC
UniProt Q2M296: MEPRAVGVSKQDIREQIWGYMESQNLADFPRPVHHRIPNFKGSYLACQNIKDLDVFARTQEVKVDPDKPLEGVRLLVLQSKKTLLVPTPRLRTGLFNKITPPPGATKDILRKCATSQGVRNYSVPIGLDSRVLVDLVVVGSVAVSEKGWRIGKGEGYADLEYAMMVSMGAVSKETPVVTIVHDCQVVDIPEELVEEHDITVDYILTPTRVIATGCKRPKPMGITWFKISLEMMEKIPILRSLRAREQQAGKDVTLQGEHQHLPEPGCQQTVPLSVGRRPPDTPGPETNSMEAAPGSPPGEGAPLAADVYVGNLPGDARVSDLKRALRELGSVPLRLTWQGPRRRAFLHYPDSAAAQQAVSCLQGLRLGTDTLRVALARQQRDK
UniProt Q765P7: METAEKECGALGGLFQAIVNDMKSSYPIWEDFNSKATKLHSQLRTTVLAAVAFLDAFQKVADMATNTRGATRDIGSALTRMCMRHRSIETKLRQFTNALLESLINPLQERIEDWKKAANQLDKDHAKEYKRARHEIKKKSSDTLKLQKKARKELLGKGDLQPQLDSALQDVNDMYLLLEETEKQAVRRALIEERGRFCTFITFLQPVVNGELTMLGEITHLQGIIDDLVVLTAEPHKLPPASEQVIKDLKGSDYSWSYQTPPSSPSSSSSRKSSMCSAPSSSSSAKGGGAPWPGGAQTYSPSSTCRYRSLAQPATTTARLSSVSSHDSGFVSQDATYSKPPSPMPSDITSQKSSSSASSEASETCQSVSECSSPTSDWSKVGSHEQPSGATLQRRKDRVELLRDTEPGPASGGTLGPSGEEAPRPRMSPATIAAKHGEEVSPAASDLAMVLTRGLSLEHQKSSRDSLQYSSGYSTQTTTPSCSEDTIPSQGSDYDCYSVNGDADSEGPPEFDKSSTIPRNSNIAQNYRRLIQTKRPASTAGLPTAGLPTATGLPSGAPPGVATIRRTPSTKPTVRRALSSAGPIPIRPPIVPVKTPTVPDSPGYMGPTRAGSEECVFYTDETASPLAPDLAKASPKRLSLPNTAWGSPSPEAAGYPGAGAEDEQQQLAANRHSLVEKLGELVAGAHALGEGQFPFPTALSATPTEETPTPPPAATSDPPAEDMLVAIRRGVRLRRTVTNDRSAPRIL
UniProt Q5VZE5, 215-236: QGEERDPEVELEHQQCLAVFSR

Experiments:
[1] = compound: ClCC(=O)N[C@@H]1CCCc2ccccc12; experiment: log2 mean competition ratio of IA-DTB cysteine labelling (DMSO/compound) (log2 ratio); higher = stronger cysteine engagement by compound; details: treatment time: 4 h, cell line lysate: HEK293T
Description: (§1)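 IA-DTB competitive cysteine chemoproteomics in HEK293T RIPA lysate. Lysates were treated with compound 29 or 30 at 50 or 200 µM for 4 h, then IA-DTB (500 µM, 1 h), trypsin-digested, NeutrAvidin-enriched and analysed by diaPASEF. Competition ratio = intensity DMSO / intensity compound (n=4 treated, n=64 DMSO); binding: mean log2 CR ≥ 1 and p ≤ 0.05 plus QC filters. Target is the cysteine site.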

[2] = compound: ClCC(=O)N[C@H]1CCCc2ccccc12; experiment: as above; details: treatment time: 4 h, cell line lysate: HEK293T
Description: as §1

Row | Target | log2 mean competition ratio ([1]; 50 µM) | log2 mean competition ratio ([1]; 200 µM) | log2 mean competition ratio ([2]; 50 µM) | log2 mean competition ratio ([2]; 200 µM)
1 | MYO1B C310 (UniProt O43795) | -0.334 | -0.177 | -0.233 | -0.155
2 | MTMR10 C104 (UniProt Q9NXD2) | -0.367 | 0.324 | 0.051 | -0.213
3 | MYBL2 C7 (UniProt P10244) | -0.133 | 0.0292 | 0.282 | 0.0474
4 | MTMR3 C928 (UniProt Q13615) | 0.013 | -0.0448 | 0.09 | 0.0103
5 | MYO1D C460 (UniProt O94832) | -0.19 | 0.0793 | -0.455 | -0.221
6 | MYCBP2 C1516 (UniProt O75592) | -0.00444 | 0.162 | -0.0173 | 0.172
7 | MRPL39 C133 (UniProt Q9NYK5) | -0.136 | 0.16 | -0.284 | 0.0967
8 | MTFMT C250 (UniProt Q96DP5) | -0.0495 | -0.0162 | 0.366 | 0.0354
9 | NAA50 C100 (UniProt Q9GZZ1) | 0.0202 | -0.22 | 0.184 | -0.0333
10 | MYO1E C447 (UniProt Q12965) | 0.0824 | 0.0589 | -0.638 | 0.278
11 | MRTFB C636 (UniProt Q9ULH7) | 0.0672 | 0.0917 | -0.102 | 0.0355
12 | MTR C120 (UniProt Q99707) | 0.0242 | -0.191 | 0.115 | 0.0108
13 | MRTFA C326 (UniProt Q969V6) | 0.296 | 0.0637 | 0.0987 | 0.218
14 | MTHFS C180 (UniProt P49914) | -0.012 | 0.043 | 0.778 | 0.945
15 | MYO19 C275 (UniProt Q96H55) | -0.192 | 0.215 | -0.323 | 0.0869
16 | NAPB C42 (UniProt Q9H115) | 0.12 | 0.239 | 0.0671 | 0.291
17 | MRTFA C783 (UniProt Q969V6) | 0.0459 | 0.22 |  | -0.428
18 | NAPG C193 (UniProt Q99747) | 0.0733 | 0.00605 | 0.36 | -0.096
19 | MTRFR C81 | 0.0329 | 0.13 | 0.375 | -0.0288
20 | MTO1 C707 (UniProt Q9Y2Z2) | 0.107 | 0.344 | -0.36 | 0.183
21 | MRPS34 C93 (UniProt P82930) | -0.328 | 0.228 | 0.226 | 0.0045
22 | MTHFSD C215 (UniProt Q2M296) | 0.422 | 0.0206 | -0.276 | 0.219
23 | MYO9A C1541 (UniProt B2RTY4) | 0.0527 | -0.00547 | 0.391 | 0.145
24 | MYO9B C1857 (UniProt Q13459) | -0.0896 | 0.343 | -0.486 | 0.148
25 | MTM1 C375 (UniProt Q13496) | -0.3 | -0.444 | -0.217 | -0.0914

Row | Target | log2 mean competition ratio ([1]; 50 µM) | log2 mean competition ratio ([1]; 200 µM) | log2 mean competition ratio ([2]; 50 µM) | log2 mean competition ratio ([2]; 200 µM)
26 | NAMPT C397 | -0.1 | -0.0168 | -0.0442 | 0.141
27 | MTMR2 C635 (UniProt Q13614) | -0.262 | -0.271 | 0.295 | -0.141
28 | MTSS2 C276 (UniProt Q765P7) | 0.186 | 0.816 | -0.177 | 0.106
29 | MTHFD1 C785 | 0.195 | 0.0685 | 0.21 | 0.0156
30 | MTHFSD C47 (UniProt Q2M296) | 0.4 | 0.391 | 0.349 | 0.0906
31 | NAA10 C194 (UniProt P41227) | -0.135 | 0.0161 | -0.112 | -0.0141
32 | MYO1C C161 (UniProt O00159) | -0.113 | 0.0445 | 0.258 | 0.115
33 | NADSYN1 C428 (UniProt Q6IA69) | -0.206 | -0.032 | 0.00656 | 0.055
34 | MTMR2 C155 (UniProt Q13614) | -0.174 | -0.105 | -0.0426 | -0.0831
35 | MT-ND3 C39 (UniProt Q8IVS2) | 0.409 | -0.0813 | 0.359 | -0.205
36 | MYO1B C509 (UniProt O43795) | 0.3 | 0.136 | -0.118 | -0.0262
37 | MYSM1 C773 (UniProt Q5VVJ2) | -0.162 | 0.471 | 0.211 | 0.479
38 | MYO1D C977 (UniProt O94832) | -0.0432 | 0.132 | 0.147 | 0.167
39 | MTHFD1L C198 | -0.0726 | 0.153 | -0.296 | 0.11
40 | MTA1 C68 (UniProt Q13330) | 0.377 | -0.178 | 0.65 | -0.229
41 | NAPRT C101 (UniProt Q6XQN6) | -0.338 | -0.112 | -0.512 | -0.392
42 | MRPS18A C108 (UniProt Q9NVS2) | 0.131 | 0.0125 | 0.0586 | 0.0225
43 | NAA15 C465 | -0.201 | -0.006 | -0.072 | 0.213
44 | NAA35 C230 (UniProt Q5VZE5) | -0.583 | 0.259 | -0.426 | -0.0512
45 | MTR C432 (UniProt Q99707) | 0.293 | -0.0736 | -0.299 | 0.325
46 | MSL1 C74 (UniProt Q68DK7) | 0.221 | 0.587 | -0.133 | 0.0436
47 | MRPL44 C167 (UniProt Q9H9J2) | -0.272 | 0.273 | -0.17 | 0.00828
48 | MYO1C C585 (UniProt O00159) | 0.479 | 0.191 | 0.411 | 0.235
49 | MRPS7 C152 (UniProt Q9Y2R9) | 0.179 | -0.383 | -0.0186 | -0.0147

Retrieved one by one from the list above (3):
Row | Target | log2 mean competition ratio ([1]; 50 µM) | log2 mean competition ratio ([1]; 200 µM) | log2 mean competition ratio ([2]; 50 µM) | log2 mean competition ratio ([2]; 200 µM)
21 | MRPS34 C93 (UniProt P82930) | -0.328 | 0.228 | 0.226 | 0.0045
41 | NAPRT C101 (UniProt Q6XQN6) | -0.338 | -0.112 | -0.512 | -0.392
6 | MYCBP2 C1516 (UniProt O75592) | -0.00444 | 0.162 | -0.0173 | 0.172
